Measurements reported in article doi:10.1101/2022.09.15.508094.
Results are given in words; binding and its absence hold for the method and conditions named. Some entries that bind do so weakly or less than the wild type. For some assays here: Tags and fused reporters may be left off the sequences shown.

By UniProt entry, the sequences of proteins in these tests, tags left out.
UniProt O93309, whole entry: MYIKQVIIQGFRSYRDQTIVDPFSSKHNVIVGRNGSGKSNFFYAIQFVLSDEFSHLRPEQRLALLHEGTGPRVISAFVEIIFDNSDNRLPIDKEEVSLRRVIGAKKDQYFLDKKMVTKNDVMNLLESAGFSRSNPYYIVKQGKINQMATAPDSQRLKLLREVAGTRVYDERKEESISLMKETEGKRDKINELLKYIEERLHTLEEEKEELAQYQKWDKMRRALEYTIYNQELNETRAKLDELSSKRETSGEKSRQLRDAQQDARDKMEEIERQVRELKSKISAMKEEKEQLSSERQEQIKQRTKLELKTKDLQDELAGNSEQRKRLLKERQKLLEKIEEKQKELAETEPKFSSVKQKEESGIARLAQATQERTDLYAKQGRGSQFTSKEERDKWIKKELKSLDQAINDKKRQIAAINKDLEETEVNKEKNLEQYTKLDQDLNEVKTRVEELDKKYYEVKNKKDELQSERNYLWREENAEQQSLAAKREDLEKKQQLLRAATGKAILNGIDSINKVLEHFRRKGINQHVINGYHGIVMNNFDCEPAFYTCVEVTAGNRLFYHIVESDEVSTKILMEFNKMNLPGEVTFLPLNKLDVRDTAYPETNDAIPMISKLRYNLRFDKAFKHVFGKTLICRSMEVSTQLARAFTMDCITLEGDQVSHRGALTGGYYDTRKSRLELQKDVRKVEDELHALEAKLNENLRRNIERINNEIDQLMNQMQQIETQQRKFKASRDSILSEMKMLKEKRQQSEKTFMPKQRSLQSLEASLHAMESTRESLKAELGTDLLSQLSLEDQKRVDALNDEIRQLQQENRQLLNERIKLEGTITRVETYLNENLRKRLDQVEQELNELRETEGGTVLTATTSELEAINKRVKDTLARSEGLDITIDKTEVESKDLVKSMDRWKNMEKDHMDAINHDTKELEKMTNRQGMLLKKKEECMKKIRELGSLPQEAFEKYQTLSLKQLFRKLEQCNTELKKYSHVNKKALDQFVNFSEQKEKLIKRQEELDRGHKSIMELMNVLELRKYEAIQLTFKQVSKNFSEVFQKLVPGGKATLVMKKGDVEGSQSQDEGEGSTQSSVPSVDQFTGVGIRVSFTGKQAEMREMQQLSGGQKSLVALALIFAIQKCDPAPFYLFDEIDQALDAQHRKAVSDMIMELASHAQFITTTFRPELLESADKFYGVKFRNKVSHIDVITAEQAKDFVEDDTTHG

Columns and labels:
[1] = target: XSMC3-Halo-Flag (Xenopus laevis) (UniProt O93309); experiment: co-purification
[2] = target: T1, XRAD21-8xHis (Xenopus laevis) (UniProt O93310); experiment: co-purification
T1 sequence: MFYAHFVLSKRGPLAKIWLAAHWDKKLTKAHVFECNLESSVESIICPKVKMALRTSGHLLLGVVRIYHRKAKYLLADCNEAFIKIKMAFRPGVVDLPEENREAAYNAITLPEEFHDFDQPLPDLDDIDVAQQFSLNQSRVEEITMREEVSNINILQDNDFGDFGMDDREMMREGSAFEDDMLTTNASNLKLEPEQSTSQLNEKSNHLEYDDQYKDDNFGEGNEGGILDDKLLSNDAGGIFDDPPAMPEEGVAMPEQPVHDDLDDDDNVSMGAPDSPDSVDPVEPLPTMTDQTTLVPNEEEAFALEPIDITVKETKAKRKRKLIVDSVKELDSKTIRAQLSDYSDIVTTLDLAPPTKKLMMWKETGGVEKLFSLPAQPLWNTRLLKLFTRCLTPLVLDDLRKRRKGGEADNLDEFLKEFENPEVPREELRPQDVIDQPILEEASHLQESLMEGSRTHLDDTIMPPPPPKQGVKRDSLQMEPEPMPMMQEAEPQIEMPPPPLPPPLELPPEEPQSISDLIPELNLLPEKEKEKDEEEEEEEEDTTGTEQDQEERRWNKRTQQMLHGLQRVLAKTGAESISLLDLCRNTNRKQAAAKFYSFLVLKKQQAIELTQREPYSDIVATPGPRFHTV

B1: XSMC1 (protein, UniProt O93308 1-1232)
chain: MGFLKLIEIENFKSYKGRQIIGPFHRFTAIIGPNGSGKSNLMDAISFVLGEKTSNLRVKTLRDLIHGAPVGKPAANRAFVSMVYSEDSGEEKVFSRVIVGGSSEYKINNKVVQLSEYSDSLEKLGILIKARNFLVFQGAVESIAMKNPKERTALFEEISRSGELAQEYDKRKKEMVKAEEDTQFNYHRKKNIAAERKEAKQEKEEAERYQRLKDEVARAQIQLQLFKLYHNESEIEKLNKELSVKNKGIEKDKKHMDKVEEELKDKKKELGKMMREQQAIEKEIKEKDAELNQKLPQYIKAKENPSHKIKKFRAAKKSLQNAQKQYKKRKADMDELEKEMLSVEKARQEFEERMEEESQSQGRDLTLEENQVKKYHRLKEEASKRAATLAQELEKFNRDQKADQDRLDLEERKKVETEAKIKQKLRELEENQKRIEKLEEYIATSKQSLEEQKNLEETLTEEVEMAKRRIDEINSELNQVMEQLGDARIDRQESSRQQRKAEIMESIKRLYPGSVYGRLIDLCQPTQKKYQIAVTKVLGKNMDAIIVDSEKTGRDCIQYIKEQRGEPETFLPLDYLEVKPTDERLRELKGAKLVIDVIRYEPPHIKKALQYACGNALVCDNVEDARRIAFGGHQRHKTVALDGTLFQKSGVISGGASDLKAKARRWDEKAVDKLKEKKERLTEELKEQMKAKRKEAELRQVQSQAHGLQMRLKYSQSDLEQTKTRHLAMNMQEKSKLESELANFSPRINDIKRIIQSRDREMKDLKEKMNQVEDEVFEEFCREIGVRNIREFEEEKVKRQNEIAKKRLEFENQKTRLGIQLDYEKNQLKEDQGKVQTWEQSVKKDDNEIEKLKKEEQRHMKIIDETMAQLQDLKNQHLAKKSEVNDKNHLMEDIRKKLGSANKEVTHLQKEVTAIETKLEQKRSDRHNLLQACKMSDIKLPLSKGTMDDISQEEGSSQGEESASSSQRSSTVYAKEALIEIDYSDLSEDLKDAVADDDIKQEMSALHQKINEQQSILQRISAPNMKAMEKLESVRDKFQETSDEFEAARKRAKKAKQAFEQTKKERFDRFNACFESVATNIDEIYKALSRNSSAQAFLGPENPEEPYLDGINYNCVAPGKRFRPMDNLSGGEKTVAALALLFAIHSYKPSPFFVLDEIDAALDNTNIGKVANYIKEQSMSNFQAIVISLKEEFYTKAESLIGVYPEQGDCVISKVLTFDLTKYPDANPNPND
B1 was tested, and the binding [1] was “binds” and the binding [2] was “binds”.
